No constants are given. Whether binding was seen depends on the method and setting. Binding seen in cells or lysates may run through a third protein. Some entries that bind do so weakly or less than the wild type. Where a sequence is shown, tags or fusion partners need not be part of it.
T1: Myc-ATGLΔPT (not stated (human or mouse cDNA cloned)) (UniProt Q8BJ56)
T1 sequence: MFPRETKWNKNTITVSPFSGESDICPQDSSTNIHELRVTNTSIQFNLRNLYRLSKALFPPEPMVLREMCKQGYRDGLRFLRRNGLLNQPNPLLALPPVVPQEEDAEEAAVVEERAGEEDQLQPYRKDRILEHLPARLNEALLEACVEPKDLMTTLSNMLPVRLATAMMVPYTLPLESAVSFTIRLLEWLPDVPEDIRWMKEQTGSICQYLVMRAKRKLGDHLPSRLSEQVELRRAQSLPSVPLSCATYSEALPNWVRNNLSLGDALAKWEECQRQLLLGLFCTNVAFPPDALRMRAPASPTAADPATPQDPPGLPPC

T2: Myc-ATGLΔHD (not stated (human or mouse cDNA cloned)) (UniProt Q8BJ56)
T2 sequence: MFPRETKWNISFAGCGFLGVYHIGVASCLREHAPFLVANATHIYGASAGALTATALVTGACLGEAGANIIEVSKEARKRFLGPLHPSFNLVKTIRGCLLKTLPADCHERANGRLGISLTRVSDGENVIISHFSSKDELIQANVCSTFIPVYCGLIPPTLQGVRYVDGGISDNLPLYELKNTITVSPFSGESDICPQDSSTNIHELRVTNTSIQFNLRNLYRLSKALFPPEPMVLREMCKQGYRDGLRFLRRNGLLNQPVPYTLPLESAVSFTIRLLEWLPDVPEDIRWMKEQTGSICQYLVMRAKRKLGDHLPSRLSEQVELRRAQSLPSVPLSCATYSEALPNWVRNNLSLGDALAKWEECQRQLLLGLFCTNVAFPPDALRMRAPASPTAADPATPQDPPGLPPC

T3: Myc-ATGL (adipose triglyceride lipase), wild type (not stated (human or mouse cDNA cloned)) (UniProt Q8BJ56)
T3 sequence: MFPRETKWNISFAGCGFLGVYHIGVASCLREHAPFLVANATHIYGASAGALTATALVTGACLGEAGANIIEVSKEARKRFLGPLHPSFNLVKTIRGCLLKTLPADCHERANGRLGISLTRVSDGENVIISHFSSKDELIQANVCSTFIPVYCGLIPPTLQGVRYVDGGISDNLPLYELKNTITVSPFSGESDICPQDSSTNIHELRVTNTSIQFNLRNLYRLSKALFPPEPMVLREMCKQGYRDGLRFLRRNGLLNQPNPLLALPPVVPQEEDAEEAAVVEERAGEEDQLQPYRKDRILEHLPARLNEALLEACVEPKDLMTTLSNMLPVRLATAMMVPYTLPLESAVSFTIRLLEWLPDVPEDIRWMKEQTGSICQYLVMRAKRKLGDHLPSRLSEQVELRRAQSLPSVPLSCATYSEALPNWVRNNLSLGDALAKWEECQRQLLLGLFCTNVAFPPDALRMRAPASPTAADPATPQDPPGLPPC

T4: HIG2-FLAG WT (human) (UniProt Q9Y5L2)
T4 sequence: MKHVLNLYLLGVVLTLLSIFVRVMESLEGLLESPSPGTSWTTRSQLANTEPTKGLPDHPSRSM

T5: HIG2-FLAG Δ7-11 (human) (UniProt Q9Y5L2)
T5 sequence: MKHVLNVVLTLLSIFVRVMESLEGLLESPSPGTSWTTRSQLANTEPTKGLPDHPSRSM


Columns and labels:
Assay in all cases: co-IP
[1] = target: T1, Myc-ATGLΔPT (not stated (human or mouse cDNA cloned))
[2] = target: T2, Myc-ATGLΔHD (not stated (human or mouse cDNA cloned))
[3] = target: T3, Myc-ATGL (adipose triglyceride lipase), wild type (not stated (human or mouse cDNA cloned))
HIG2-FLAG WT (human) = target: T4, HIG2-FLAG WT (human)
HIG2-FLAG Δ7-11 (human) = target: T5, HIG2-FLAG Δ7-11 (human)

binding [1]	binding [2]	binding [3]	binding (HIG2-FLAG WT (human))	binding (HIG2-FLAG Δ7-11 (human))	Binder
no binding	binds	binds	–	–	HIG2-FLAG WT (protein, UniProt Q9Y5L2 1-63) MKHVLNLYLLGVVLTLLSIFVRVMESLEGLLESPSPGTSWTTRSQLANTEPTKGLPDHPSRSM
–	–	–	binds	no binding	Myc-ATGL (adipose triglyceride lipase), wild type (enzyme, UniProt Q8BJ56 1-486) MFPRETKWNISFAGCGFLGVYHIGVASCLREHAPFLVANATHIYGASAGALTATALVTGACLGEAGANIIEVSKEARKRFLGPLHPSFNLVKTIRGCLLKTLPADCHERANGRLGISLTRVSDGENVIISHFSSKDELIQANVCSTFIPVYCGLIPPTLQGVRYVDGGISDNLPLYELKNTITVSPFSGESDICPQDSSTNIHELRVTNTSIQFNLRNLYRLSKALFPPEPMVLREMCKQGYRDGLRFLRRNGLLNQPNPLLALPPVVPQEEDAEEAAVVEERAGEEDQLQPYRKDRILEHLPARLNEALLEACVEPKDLMTTLSNMLPVRLATAMMVPYTLPLESAVSFTIRLLEWLPDVPEDIRWMKEQTGSICQYLVMRAKRKLGDHLPSRLSEQVELRRAQSLPSVPLSCATYSEALPNWVRNNLSLGDALAKWEECQRQLLLGLFCTNVAFPPDALRMRAPASPTAADPATPQDPPGLPPC

From article doi:10.1101/181503
